Measured values taken from the supplement of paper PMC7580552.
Counter-ions that a name gives are not always drawn. Some of the results follow. Part of the spread comes from offsets between plates or batches.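 A K-12 lab model strain is cultured statically in 96-well plates; biofilm is measured as the absorbance of crystal violet stain retained in the wells. Drugs counted as candidate specific biofilm blockers if they strongly reduced staining while slowing planktonic growth by under 70%.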

System: Escherichia coli W3110
Experiment: biofilm formation (crystal violet staining) relative to untreated control; higher = more biofilm
Conditions: 10 µM; 20-24 h; 30 °C; TB

Question: How did the biofilm formation turn out when O=C(O)c1cn(C2CC2)c2cc(N3CCNCC3)c(F)cc2c1=O [Ciprofloxacin hydrochloride monohydrate] was run?
Answer: The biofilm formation was 9%.

Question: CCOc1nc2cccc(C(=O)OCc3oc(=O)oc3C)c2n1Cc1ccc(-c2ccccc2-c2noc(=O)[nH]2)cc1 [Azilsartan kamedoxomil] was tested. Which biofilm formation did it give?
Answer: Its biofilm formation is 65%.

Question: How did the biofilm formation turn out when Nc1ccccc1S(N)(=O)=O [2-Aminobenzenesulfonamide] was run?
Answer: Its biofilm formation is 49%.

Question: With COc1ccccc1Oc1c(NS(=O)(=O)c2ccc(C(C)(C)C)cc2)nc(-c2ncccn2)nc1OCCO [Bosentan] as the compound, how does the biofilm formation read?
Answer: Its biofilm formation is 97%.

Question: Which biofilm formation does the source give for CN(C)CCC=C1c2ccccc2COc2ccccc21 [Doxepin hydrochloride] here?
Answer: Its biofilm formation is 53%.

Question: CC(C)[N+](C)(CCOC(=O)C1c2ccccc2Oc2ccccc21)C(C)C [Propantheline bromide] was tested. Which biofilm formation did it give?
Answer: Its biofilm formation is 65%.

Question: Which biofilm formation does the source give for CCC[C@@H]1C[C@@H](C(=O)N[C@@H]([C@H]2O[C@H](SC)[C@H](O)[C@@H](O)[C@H]2O)[C@H](C)Cl)N(C)C1 [Clindamycin hydrochloride] here?
Answer: The biofilm formation was 47%.

Question: With O=C(N[C@H](CO)[C@H](O)c1ccc([N+](=O)[O-])cc1)C(Cl)Cl [Chloramphenicol] as the compound, how does the biofilm formation read?
Answer: Its biofilm formation is 32%.

Question: With C=C1/C(=C\C=C2/CCC[C@]3(C)[C@@H]([C@H](C)CCCC(C)C)CC[C@@H]23)C[C@@H](O)C[C@@H]1O [Alfacalcidol] as the compound, how does the biofilm formation read?
Answer: The biofilm formation was 52%.

Question: Cc1ccc2c(c1)c1c3n2CCNC3CCC1 (stereo not drawn) [Pirlindole mesylate] was tested. Which biofilm formation did it give?
Answer: Its biofilm formation is 81%.

Question: For CCN(CC)CCNC(=O)c1cc(Cl)c(N)cc1OC [Metoclopramide monohydrochloride], which biofilm formation is on record?
Answer: The biofilm formation was 61%.

Question: CCOc1ccc2ccccc2c1C(=O)N[C@@H]1C(=O)N2[C@@H]1SC(C)(C)[C@@H]2C(=O)O [Nafcillin sodium salt monohydrate] was tested. Which biofilm formation did it give?
Answer: The biofilm formation was 64%.

Question: How did the biofilm formation turn out when CC(C)(CO)C(O)C(=O)NCCCO (stereo not drawn) [Panthenol (D)] was run?
Answer: The biofilm formation was 71%.

Question: How did the biofilm formation turn out when CN(C)C/C=C(/c1ccc(Br)cc1)c1cccnc1 [Zimelidine dihydrochloride monohydrate] was run?
Answer: Its biofilm formation is 57%.

Question: For Cn1cnc2c1c(=O)[nH]c(=O)n2C [Theobromine], which biofilm formation is on record?
Answer: The biofilm formation was 83%.

Question: How did the biofilm formation turn out when Cc1c(-c2ccccc2)oc2c(C(=O)OCCN3CCCCC3)cccc2c1=O [Flavoxate hydrochloride] was run?
Answer: The biofilm formation was 70%.

Question: CN[C@@H]1[C@@H](O[C@H]2O[C@H](CO)[C@@H](N)[C@H](O)[C@H]2O)OC2C[C@@H](N)[C@@H](O[C@H]3[C@H](O)[C@@H](O)[C@H](N)C[C@@H]3N)OC2[C@@H]1O (stereo partly drawn) [Apramycin] was tested. Which biofilm formation did it give?
Answer: The biofilm formation was 72%.

Question: How did the biofilm formation turn out when Cc1onc(-c2ccccc2Cl)c1C(=O)N[C@@H]1C(=O)N2[C@@H]1SC(C)(C)[C@@H]2C(=O)O [Cloxacillin sodium salt] was run?
Answer: Its biofilm formation is 50%.

Question: With N[C@@H](C(=O)N[C@@H]1C(=O)N2C(C(=O)O)=C(Cl)CC[C@H]12)c1ccccc1 [Loracarbef] as the compound, how does the biofilm formation read?
Answer: Its biofilm formation is 86%.

Question: C#Cc1cccc(Nc2ncnc3cc(OCCOC)c(OCCOC)cc23)c1 [Erlotinib] was tested. Which biofilm formation did it give?
Answer: The biofilm formation was 87%.

Question: How did the biofilm formation turn out when CC(C)Nc1cccnc1N1CCN(C(=O)c2cc3cc(NS(C)(=O)=O)ccc3[nH]2)CC1 [Delavirdine] was run?
Answer: The biofilm formation was 84%.

Question: NS(=O)(=O)c1cc2c(cc1Cl)NC(C(Cl)Cl)NS2(=O)=O (stereo not drawn) [Trichlormethiazide] was tested. Which biofilm formation did it give?
Answer: The biofilm formation was 57%.

Question: With CN[C@@H]1[C@H](O)[C@H](NC)[C@H]2O[C@@]3(O)C(=O)C[C@@H](C)O[C@H]3O[C@@H]2[C@H]1O [Spectinomycin dihydrochloride] as the compound, how does the biofilm formation read?
Answer: Its biofilm formation is 41%.

Question: For C[C@H]1O[C@@H](O[C@H]2[C@@H](O)C[C@H](O[C@H]3[C@@H](O)C[C@H](O[C@H]4CC[C@@]5(C)[C@H](CC[C@@H]6[C@@H]5C[C@@H](O)[C@]5(C)[C@@H](C7=CC(=O)OC7)CC[C@]65O)C4)O[C@@H]3C)O[C@@H]2C)C[C@H](O)[C@@H]1O [Digoxin], which biofilm formation is on record?
Answer: Its biofilm formation is 72%.

Question: Which biofilm formation does the source give for O=C(OCC(O)CO)c1ccccc1Nc1ccnc2cc(Cl)ccc12 (stereo not drawn) [Glafenine hydrochloride] here?
Answer: Its biofilm formation is 66%.

Question: CC(C(=O)O)c1ccc(-c2ccccc2)c(F)c1 (stereo not drawn) [Flurbiprofen] was tested. Which biofilm formation did it give?
Answer: Its biofilm formation is 106%.

Question: Cc1ccccc1C(=O)Nc1ccc(C(=O)N2CCCC(O)c3cc(Cl)ccc32)c(C)c1 (stereo not drawn) [Tolvaptan] was tested. Which biofilm formation did it give?
Answer: The biofilm formation was 87%.

Question: How did the biofilm formation turn out when CN(C)C(=O)C(CCN1CCC(O)(c2ccc(Cl)cc2)CC1)(c1ccccc1)c1ccccc1 [Loperamide hydrochloride] was run?
Answer: Its biofilm formation is 78%.

Question: Which biofilm formation does the source give for CCCCc1cc2ccccc2c(OCCN(C)C)n1 [Dimethisoquin hydrochloride] here?
Answer: Its biofilm formation is 77%.

Question: How did the biofilm formation turn out when CC(C(=O)O)c1ccc2c(c1)[nH]c1ccc(Cl)cc12 (stereo not drawn) [Carprofen] was run?
Answer: The biofilm formation was 78%.

Question: How did the biofilm formation turn out when Cc1cccc(C)c1NC(=O)C(C)N (stereo not drawn) [Tocainide hydrochloride] was run?
Answer: The biofilm formation was 66%.

Question: Cc1c(N(C)C)c(=O)n(-c2ccccc2)n1C [Amidopyrine] was tested. Which biofilm formation did it give?
Answer: Its biofilm formation is 72%.

Question: Oc1c(Cl)cc(Cl)c(Cl)c1Cc1c(O)c(Cl)cc(Cl)c1Cl [Hexachlorophene] was tested. Which biofilm formation did it give?
Answer: Its biofilm formation is 82%.

Question: With COc1ccc(/C=C/C(=O)Nc2ccccc2C(=O)O)cc1OC [Tranilast] as the compound, how does the biofilm formation read?
Answer: The biofilm formation was 97%.

Question: For CCOC(=O)C1=C(COCCN)NC(C)=C(C(=O)OC)C1c1ccccc1Cl (stereo not drawn) [Amlodipine], which biofilm formation is on record?
Answer: The biofilm formation was 92%.

Question: Which biofilm formation does the source give for CN1[C@@H]2CC[C@H]1C[C@@H](OC(=O)c1c[nH]c3ccccc13)C2 [Tropisetron hydrochloride] here?
Answer: Its biofilm formation is 115%.

Question: With Cc1cccc(C)c1OCC(C)N (stereo not drawn) [Mexiletine hydrochloride] as the compound, how does the biofilm formation read?
Answer: Its biofilm formation is 76%.

Question: With N#Cc1cc(NC(=O)C(=O)O)c(Cl)c(NC(=O)C(=O)O)c1 [Lodoxamide] as the compound, how does the biofilm formation read?
Answer: The biofilm formation was 99%.

Question: How did the biofilm formation turn out when Nc1nc(CC(=O)Nc2ccc(CCNC[C@H](O)c3ccccc3)cc2)cs1 [Mirabegron] was run?
Answer: Its biofilm formation is 54%.

Question: Which biofilm formation does the source give for NC[C@@H]1O[C@H](O[C@H]2[C@@H](O)[C@H](O[C@@H]3[C@@H](O)[C@H](N)C[C@H](N)[C@H]3O[C@H]3O[C@H](CO)[C@@H](O)[C@H](O)[C@H]3N)O[C@@H]2CO)[C@H](N)[C@@H](O)[C@@H]1O [Paromomycin sulfate] here?
Answer: Its biofilm formation is 50%.

Question: Which biofilm formation does the source give for COc1ccccc1OCC(O)CO (stereo not drawn) [Guaifenesin] here?
Answer: Its biofilm formation is 65%.

Question: Which biofilm formation does the source give for CC(=O)[C@H]1CC[C@H]2[C@@H]3C=CC4=CC(=O)CC[C@@]4(C)[C@@H]3CC[C@]12C [Dydrogesterone] here?
Answer: The biofilm formation was 63%.

Question: How did the biofilm formation turn out when CN(C)CCOC(C)(c1ccccc1)c1ccccn1 (stereo not drawn) [Doxylamine succinate] was run?
Answer: The biofilm formation was 68%.
